# The supplement of paper PMC3334620
# In all, about 33,000 sequences were measured (“E-score (-0.5 to 0.5)”: median about -0.016, highest 2% from about 0.3 on). The list shows a part of the results.
# Target: T1, Yer184c (UniProt P39961)
# T1 sequence: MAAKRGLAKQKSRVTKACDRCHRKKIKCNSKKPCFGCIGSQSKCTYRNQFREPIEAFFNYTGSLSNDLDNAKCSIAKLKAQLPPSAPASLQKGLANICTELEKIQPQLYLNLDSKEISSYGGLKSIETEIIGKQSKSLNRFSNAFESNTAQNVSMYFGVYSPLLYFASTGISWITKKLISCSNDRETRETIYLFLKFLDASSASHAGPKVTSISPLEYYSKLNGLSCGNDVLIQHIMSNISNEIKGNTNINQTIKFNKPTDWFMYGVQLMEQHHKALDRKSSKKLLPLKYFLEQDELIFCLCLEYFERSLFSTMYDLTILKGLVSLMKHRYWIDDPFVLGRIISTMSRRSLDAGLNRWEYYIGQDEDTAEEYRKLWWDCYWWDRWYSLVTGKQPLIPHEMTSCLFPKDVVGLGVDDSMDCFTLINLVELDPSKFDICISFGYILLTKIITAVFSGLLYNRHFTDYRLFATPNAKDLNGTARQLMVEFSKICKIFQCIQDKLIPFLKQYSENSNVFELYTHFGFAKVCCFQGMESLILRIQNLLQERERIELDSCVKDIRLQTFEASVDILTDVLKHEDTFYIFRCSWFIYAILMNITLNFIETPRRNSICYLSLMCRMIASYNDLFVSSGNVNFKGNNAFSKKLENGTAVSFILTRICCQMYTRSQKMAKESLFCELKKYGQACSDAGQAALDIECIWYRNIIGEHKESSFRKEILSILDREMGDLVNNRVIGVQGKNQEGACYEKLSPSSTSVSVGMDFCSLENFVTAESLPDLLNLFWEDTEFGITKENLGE
# Assay: PBM E-score (8-mer binding enrichment) (E-score (-0.5 to 0.5)); higher = stronger / more preferred TF binding
# Details: protein concentration: 100 nM; construct: GST-full length
# Procedure, shortened: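 Universal all-10-mer Agilent arrays, fresh or stripped once, were converted to double-stranded form by primer extension. GST-tagged yeast transcription factors from PURExpress in vitro transcription/translation, full-length or DNA-binding domain only, were applied at about 100-200 nM and detected with fluorescent anti-GST. After masliner normalisation, the Universal PBM Analysis Suite scored each ungapped eight-base word together with its reverse complement by E-score.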
row,Sequence,PBM E-score
1,CTGTGTTA,0.00808
2,ATTATCCA,0.0655
3,GCACCCTA,-0.245
4,AATCCGTA,0.0372
5,AATCTTTC,0.0963
6,GTATGAAC,0.101
7,AATCACTG,0.0269
8,GCTGGGAC,-0.148
9,ACACTCGG,0.146
10,ATACACTG,-0.15
11,GACATACC,-0.128
12,AAGACACT,-0.0168
13,AGGTCTGG,-0.243
14,ATATACCC,0.021
15,CGCGAGCG,0.0639
16,ATGAGAAT,0.204
17,CGCACGAG,-0.141
18,CTATACAG,0.0752
19,AGTTCTTA,0.0659
20,CACGTCTA,-0.263
21,GGTTATAC,-0.121
22,CGGTGCGC,0.0189
23,CACTGCTC,-0.00605
24,AGATCGCA,0.0384
25,AACAGTCC,-0.185

row,Sequence,PBM E-score
1,AGGAAGCG,-0.042
2,GGCGGGCA,-0.0135
3,ACGGACCT,0.0643
4,CGAAGAGA,0.181
5,AGGCATCA,-0.163
6,CGCCGACC,0.135
7,CCGCACCC,-0.0287
8,ACGCCCAG,-0.225
9,TCAGATAA,0.153
10,AGAAAGCT,0.107
11,CCGCTAGA,-0.231
12,GGGACTGA,-0.215
13,CTGGATGA,-0.00515
14,AGAAGGTG,0.0161
15,GGGGTAAA,0.0458
16,AGTAGGAG,-0.156
17,ACCGTTCC,0.28
18,CCGTGAGC,-0.0292
19,AGAGACGA,0.0423
20,GCAGTGGC,-0.00847
21,CACCAGTA,-0.156
22,ATAGGGGC,-0.319
23,GAACTGGC,-0.0976
24,CCGAATCG,0.263
25,AGACCACA,-0.0838

row,Sequence,PBM E-score
1,AGAAGAGC,-0.03
2,ACTACGCG,-0.00829
3,AAACGTCG,-0.044
4,AATTATGT,0.157
5,AAGTGCCA,-0.0635
6,GTTGTGGA,-0.053
7,GGATGCAA,0.022
8,CGAAAAAC,0.101
9,CCCGTCCC,-0.22
10,GTAACTGA,-0.109
11,CGAGCATA,-0.149
12,CAAGGCTC,-0.354
13,AAACTGGA,0.0243
14,CATTACAA,0.0533
15,TCAACCGA,0.226
16,CAGTATGG,0.0408
17,CCACAGTC,-0.3
18,CAGCGTAA,0.0438
19,CGATCGTC,0.0985
20,AAACATAT,0.281
21,ACCTTAGC,-0.142
22,CTAGAACA,0.248
23,CCGTAAGA,-0.0592
24,AACCCCGA,0.0551
25,TGAGCGAA,0.0953

# Part of the list above, as tab-separated lines.
row	Sequence	PBM E-score
2	ACTACGCG	-0.00829
16	CAGTATGG	0.0408

# Next records

row,Sequence,PBM E-score
1,GGGCCCCC,-0.304
2,AGCGTACG,-0.172
3,AGGGTCAT,-0.295
4,AACGTCGT,-0.0549
5,GTGTAGTA,-0.0806
6,CTGGCTGA,-0.134
7,GACCTAAA,0.0912
8,AGGTAGGA,-0.06
9,ACACGATA,0.248
10,GAAAGCAA,0.248
11,TGGTCCAA,-0.172
12,CTAGGGAG,-0.261
13,AATCGGTA,0.102
14,AGTTGGAA,0.0474
15,TCACCTAA,0.163
16,GAATGTGA,-0.082
17,CATTCGCA,-0.0503
18,GAGAGCTC,-0.151
19,AGATCCAG,-0.0113
20,ATCAGTTC,-0.122
21,CTCCACTA,-0.046
22,AATCGCGT,0.0463
23,AGTCGCAA,-0.0383
24,ATTAATAG,0.181
25,CCCACCAA,-0.204

row,Sequence,PBM E-score
1,AAGGCCCT,-0.133
2,CTCAAAGC,0.114
3,CAGTGTCC,0.00844
4,CCACCTTA,-0.163
5,GTCAGGAA,0.0403
6,ATAGCTTG,0.025
7,AACCGGCT,0.264
8,ACGCTGAT,-0.0115
9,GTAAAATA,0.158
10,AATGAGCG,0.122
11,CGATATCC,0.166
12,AATTGGTG,-0.0396
13,GCGTCCAC,-0.0319
14,ACGGCGTC,0.0138
15,CGTATAAC,0.106
16,CATTTCCA,0.0456
17,GCTTAAAA,0.194
18,ATACTGCC,0.0554
19,AACAAGTC,-0.0759
20,AAGACATA,-0.183
21,CTCGGGGA,0.079
22,ACATCTAT,0.215
23,CTCCAGAA,-0.161
24,GGACATAA,0.0544
25,AGCACCCC,-0.249

# An excerpt of these results, with bars between the fields:
row | Sequence | PBM E-score
5 | GTCAGGAA | 0.0403
13 | GCGTCCAC | -0.0319
14 | ACGGCGTC | 0.0138
17 | GCTTAAAA | 0.194
21 | CTCGGGGA | 0.079
25 | AGCACCCC | -0.249

# Following part:

row,Sequence,PBM E-score
1,CGCGGGAA,0.311
2,AGTGATGA,-0.111
3,GTGAGTTA,-0.0335
4,CTCGCAAG,0.0257
5,AGTATTAA,0.163
6,GGAGATCA,0.0983
7,CAACTGAA,-0.0313
8,ATGGGGCA,-0.252
9,CCGCCGAA,0.313
10,ACCCAGGC,0.0744
11,CTCGCCCC,-0.247
12,TAGTAAGA,0.125
13,ATAATAAG,0.153
14,CGGCGGTC,-0.0364
15,CCTCACTC,-0.0394
16,AGGCTAAC,0.00771
17,GTGTTGTA,0.0923
18,CAACACCC,-0.0822
19,CCATCCTA,-0.11
20,CGGGCCAC,0.0151
21,TAGAATCA,0.00352
22,ATTAACCC,0.0664
23,ACTAGTGA,-0.172
24,CTCCCTTA,-0.268
25,CCCATGTC,-0.0199

row,Sequence,PBM E-score
1,GCCCAAGC,-0.0265
2,CACGGGAC,0.0655
3,AATGCGAC,0.0858
4,GCAGCCGC,0.0669
5,CTAAATTA,0.202
6,GGTCGCCA,-0.184
7,AGTAGCGC,-0.0551
8,GCTTGGAC,-0.233
9,AAAACTTG,0.114
10,CTCCATCC,-0.183
11,AACAACCA,0.045
12,GGTATGGA,-0.125
13,ACGCGTAG,-0.127
14,CATCACGG,-0.056
15,GGATCTAC,0.076
16,ATACAAGA,0.0377
17,AACTGACC,-0.019
18,CGATGTAA,-0.045
19,CCCAATGA,-0.132
20,AAGGTGCT,-0.244
21,TCGAAAGA,0.133
22,CTAAGCAC,0.0214

# Individual results from the results shown.
# Entry for AGTAGCGC under PBM E-score: -0.0551
# Entry for GCTTGGAC under PBM E-score: -0.233
